Results: patent US8461328B2, “Tricyclic heterocyclic compounds, compositions and methods of use thereof” (Genentech, Inc., priority 2010, dated 2013)
Where two headings read alike, the source gives them in different places. Some of these results come from one statement about several compounds together.

Protein sequences, listed by entry. Tags and fused reporters are not part of them. Residues count along the entry.
UniProt P23458, 852-1154: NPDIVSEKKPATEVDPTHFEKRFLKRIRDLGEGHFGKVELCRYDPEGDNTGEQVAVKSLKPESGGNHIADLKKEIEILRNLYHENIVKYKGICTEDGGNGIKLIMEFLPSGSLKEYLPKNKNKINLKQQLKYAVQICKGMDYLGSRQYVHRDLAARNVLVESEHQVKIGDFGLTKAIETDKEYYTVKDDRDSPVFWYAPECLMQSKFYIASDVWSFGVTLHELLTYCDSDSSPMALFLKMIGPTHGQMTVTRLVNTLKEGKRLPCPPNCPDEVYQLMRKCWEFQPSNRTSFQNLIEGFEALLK

Target: T1, human JAK1 kinase domain (Homo sapiens, UniProt P23458)
T1 construct: made in house; host or cells: SF9 insect cells (baculovirus)
Test: JAK1 inhibition assay (Example B), Caliper LabChip peptide phosphorylation
Assay type: biochemical

[1] = 1.5 nM JAK1, 25 μM ATP, Morrison tight binding model; read-out: Ki in a JAK1 kinase activity assay (Example B)

| SMILES | Ki [1] [nM] | Ki (read-out: Ki in a JAK1 kinase activity assay (Example B); 1.5 nM JAK1, 25 μM ATP, Morrison tight binding model) [nM] |
| --- | --- | --- |
| Cc1nc2cnc3[nH]ccc3c2n1[C@@H]1CC[C@@H](NC(=O)CC(F)(F)F)C1 [Example 624, 3,3,3-Trifluoro-N-[(1R,3R)-3-(2-methyl-6H-1,2,3,5,6-tetraaza-as-indacen-1-yl)-cyclopentyl]-propionamide] | < 500 |  |
| Cc1nc2cnc3[nH]ccc3c2n1[C@@H]1CC[C@@H](NC2COC2)C1 [Example 625, [(1R,3R)-3-(2-Methyl-6H-1,2,3,5,6-tetraaza-as-indacen-1-yl)-cyclopentyl]-oxetan-3-yl-amine] | < 500 |  |
| OC[C@H]1CC[C@H](n2cnc3cnc4[nH]ccc4c32)CC1 [Example 631, trans [4-(6H-1,2,3,5,6-Tetraaza-as-indacen-1-yl)-cyclohexyl]-methanol] | < 500 |  |
| Cc1nc2cnc3[nH]ccc3c2n1[C@H]1CC[C@H](CO)CC1 [Example 633, Trans[4-(2-methyl-6H-1,2,3,5,6-tetraaza-as-indacen-1-yl)-cyclohexyl]-methanol] | < 500 |  |
| CO[C@H]1CC[C@H](n2c(CO)nc3cnc4[nH]ccc4c32)CC1 [Example 634, Trans[1-(4-Methoxy-cyclohexyl)-1,6-dihydro-1,2,3,5,6-tetraaza-as-indacen-2-yl]-methanol] | < 500 |  |
| COC[C@H]1CC[C@H](n2c(CO)nc3cnc4[nH]ccc4c32)CC1 [Example 636, Trans[1-(4-methoxymethyl-cyclohexyl)-1,6-dihydro-1,2,3,5,6-tetraaza-as-indacen-2-yl]-methanol] | < 500 |  |
| COC[C@H]1CC[C@H](n2c([C@@H](C)O)nc3cnc4[nH]ccc4c32)CC1 [Example 637, Trans (R)-1-[1-(4-methoxymethyl-cyclohexyl)-1,6-dihydro-1,2,3,5,6-tetraaza-as-indacen-2-yl]-ethanol] | < 500 |  |
| C[C@@H](O)c1nc2cnc3[nH]ccc3c2n1[C@H]1CC[C@H](OCC#N)CC1 [Example 639, Trans {4-[2-((R)-1-hydroxy-ethyl)-6H-1,2,3,5,6-tetraaza-as-indacen-1-yl]-cyclohexyloxy}-acetonitrile] | < 500 |  |
| N#C[C@H]1CC[C@H](n2cnc3cnc4[nH]ccc4c32)CC1 [Example 640, trans 4-(6H-1,2,3,5,6-Tetraaza-as-indacen-1-yl)-cyclohexanecarbonitrile] | < 500 |  |
| C[C@@H](O)c1nc2cnc3[nH]ccc3c2n1[C@H]1CC[C@H](C#N)CC1 [Example 641, trans 4-[2-((R)-1-Hydroxy-ethyl)-6H-1,2,3,5,6-tetraaza-as-indacen-1-yl]-cyclohexanecarbonitrile] | < 500 |  |
| N#C[C@H]1CC[C@H](n2c(CO)nc3cnc4[nH]ccc4c32)CC1 [Example 642, Trans 4-(2-hydroxymethyl-6H-1,2,3,5,6-tetraaza-as-indacen-1-yl)cyclohexane carbonitrile] | < 500 |  |
| N#CC[C@H]1CC[C@H](n2c(CO)nc3cnc4[nH]ccc4c32)CC1 [Example 645, Trans[4-(2-hydroxymethyl-6H-1,2,3,5,6-tetraaza-as-indacen-1-yl)-cyclohexyl]-acetonitrile] |  | < 500 |
| N#CCC[C@H]1CC[C@H](n2c(CO)nc3cnc4[nH]ccc4c32)CC1 [Example 646, 3-[4-(2-hydroxymethyl-6H-1,2,3,5,6-tetraaza-as-indacen-1-yl)-cyclohexyl]-propionitrile] | < 500 |  |
| C[C@@H](O)c1nc2cnc3[nH]ccc3c2n1[C@H]1CC[C@H](S(C)(=O)=O)CC1 [Example 650, Trans (R)-1-[1-(4-methanesulfonyl-cyclohexyl)-1,6-dihydro-1,2,3,5,6-tetraaza-as-indacen-2-yl]-ethanol] | < 500 |  |
| CS(=O)(=O)[C@H]1CC[C@H](n2c(CO)nc3cnc4[nH]ccc4c32)CC1 [Example 651, Trans[1-(4-Methanesulfonyl-cyclohexyl)-1,6-dihydro-1,2,3,5,6-tetraaza-as-indacen-2-yl]-methanol] | < 500 |  |

The remaining lines, values ahead:

| Ki [1] [nM] | Ki (read-out: Ki in a JAK1 kinase activity assay (Example B); 1.5 nM JAK1, 25 μM ATP, Morrison tight binding model) [nM] | SMILES |
| --- | --- | --- |
| < 500 |  | COC(=O)N(C)[C@H]1CC[C@H](n2c(CO)nc3cnc4[nH]ccc4c32)CC1 [Example 606, Trans[4-(2-hydroxymethyl-6H-1,2,3,5,6-tetraaza-as-indacen-1-yl)-cyclohexyl]-methyl-carbamic acid methyl ester] |
| < 500 |  | Cc1nc2cnc3[nH]ccc3c2n1[C@H]1CC[C@H](NC(=O)OCC(F)F)CC1 [Example 607, Trans[4-(2-methyl-6H-1,2,3,5,6-tetraaza-as-indacen-1-yl)-cyclohexyl]-carbamic acid 2,2-difluoro-ethyl ester] |
| < 500 |  | CNC(=O)N(C)[C@H]1CC[C@H](n2c(C)nc3cnc4[nH]ccc4c32)CC1 [Example 608, Trans 1,3-dimethyl-1-[4-(2-methyl-6H-1,2,3,5,6-tetraaza-as-indacen-1-yl)-cyclohexyl]-urea] |
| < 500 |  | C[C@@H](O)c1nc2cnc3[nH]ccc3c2n1[C@H]1CC[C@H](OC(=O)N(C)C)CC1 [Example 609, Trans dimethyl-carbamic acid 4-[2-((R)-1-hydroxy-ethyl)-6H-1,2,3,5,6-tetraaza-as-indacen-1-yl]-cyclohexyl ester] |
| < 500 |  | C[C@@H](O)c1nc2cnc3[nH]ccc3c2n1[C@H]1CC[C@H](N2CC[C@@H](C#N)C2)CC1 [Example 610, Trans (R)-1-{4-[2-((R)-1-hydroxy-ethyl)-6H-1,2,3,5,6-tetraaza-as-indacen-1-yl]-cyclohexyl}-pyrrolidine-3-carbonitrile] |
| < 500 |  | C[C@@H](O)c1nc2cnc3[nH]ccc3c2n1[C@H]1CC[C@@H](N2CCC(F)(F)CC2)CC1 [Example 612, Cis (R)-1-{1-[4-(4,4-difluoro-piperidin-1-yl)-cyclohexyl]-1,6-dihydro-1,2,3,5,6-tetraaza-as-indacen-2-yl}-ethanol] |
| < 500 |  | N#CC1CCN([C@H]2CC[C@H](n3c(CO)nc4cnc5[nH]ccc5c43)CC2)CC1 [Example 613, Trans 1-[4-(2-hydroxymethyl-6H-1,2,3,5,6-tetraaza-as-indacen-1-yl)-cyclohexyl]-piperidine-4-carbonitrile] |
| < 500 |  | C[C@@H](O)c1nc2cnc3[nH]ccc3c2n1[C@H]1CC[C@H](NCC(F)(F)F)CC1 [Example 614, Trans (R)-1-{1-[4-(2,2,2-trifluoro-ethylamino)-cyclohexyl]-1,6-dihydro-1,2,3,5,6-tetraaza-as-indacen-2-yl}-ethanol] |
| < 500 |  | C[C@@H](O)c1nc2cnc3[nH]ccc3c2n1[C@H]1CC[C@H](NCCC#N)CC1 [Example 615, Trans 3-{4-[2-((R)-1-hydroxy-ethyl)-6H-1,2,3,5,6-tetraaza-as-indacen-1-yl]-cyclohexylamino}-propionitrile] |
| < 500 |  | C[C@@H](O)c1nc2cnc3[nH]ccc3c2n1[C@H]1CC[C@H](N(C)CCC#N)CC1 [Example 616, Trans 3-({4-[2-((R)-1-hydroxy-ethyl)-6H-1,2,3,5,6-tetraaza-as-indacen-1-yl]-cyclohexyl}-methyl-amino)-propionitrile] |
| < 500 |  | C[C@@H](O)c1nc2cnc3[nH]ccc3c2n1[C@H]1CC[C@H](N(C)CC(F)(F)F)CC1 [Example 617, Trans (R)-1-(1-{4-[methyl-(2,2,2-trifluoro-ethyl)-amino]-cyclohexyl}-1,6-dihydro-1,2,3,5,6-tetraaza-as-indacen-2-yl)-ethanol] |
| < 500 |  | Cc1nc2cnc3[nH]ccc3c2n1[C@@H]1CC[C@@H](NC(=O)OC(C)(C)C)C1 [Example 623, [(1R,3R)-3-(2-Methyl-6H-1,2,3,5,6-tetraaza-as-indacen-1-yl)-cyclopentyl]-carbamic acid tert-butyl ester] |
